# Values of other authors in US8868172B2, “Methods and systems for recommending an appropriate action to a patient for managing epilepsy and other neurological disorders” (Cyberonics, Inc., priority 2005, dated 2014).
# At least one structure is not confirmed: it was looked up by name or label, or the drawing left a doubt.
structure (smiles),measurement,value
CCC1(c2ccccc2)C(=O)NC(=O)NC1=O [phenobarbital],minimum plasma concentration for prophylaxis against febrile convulsions,about 15 μg/ml
